According to paper doi:10.1101/2023.11.28.568985:
These are yes or no findings as the source states them, for the method shown. Binding seen in cells or lysates may run through a third protein. Some binding calls cover weakened binding; strength is not graded here.

By UniProt entry, the sequences of proteins in these tests, tags left out.
UniProt O43823: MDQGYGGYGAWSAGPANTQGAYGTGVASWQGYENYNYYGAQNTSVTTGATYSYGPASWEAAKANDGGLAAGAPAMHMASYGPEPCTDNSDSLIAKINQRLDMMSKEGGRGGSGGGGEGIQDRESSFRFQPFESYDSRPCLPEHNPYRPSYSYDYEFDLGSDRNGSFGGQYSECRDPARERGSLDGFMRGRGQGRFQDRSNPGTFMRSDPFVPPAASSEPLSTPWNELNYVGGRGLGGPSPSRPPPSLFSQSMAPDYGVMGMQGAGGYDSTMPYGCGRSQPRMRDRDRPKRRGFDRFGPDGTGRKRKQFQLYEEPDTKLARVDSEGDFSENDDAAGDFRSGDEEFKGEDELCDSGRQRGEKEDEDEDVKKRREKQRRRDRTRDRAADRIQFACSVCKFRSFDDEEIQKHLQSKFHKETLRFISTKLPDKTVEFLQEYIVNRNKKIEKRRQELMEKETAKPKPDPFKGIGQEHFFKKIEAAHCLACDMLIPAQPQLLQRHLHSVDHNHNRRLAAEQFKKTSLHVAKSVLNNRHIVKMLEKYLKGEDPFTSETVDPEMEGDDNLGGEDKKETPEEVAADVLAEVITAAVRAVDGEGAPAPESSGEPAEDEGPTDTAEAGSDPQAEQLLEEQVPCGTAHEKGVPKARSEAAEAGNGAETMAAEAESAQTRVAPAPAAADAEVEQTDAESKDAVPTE
UniProt P17844: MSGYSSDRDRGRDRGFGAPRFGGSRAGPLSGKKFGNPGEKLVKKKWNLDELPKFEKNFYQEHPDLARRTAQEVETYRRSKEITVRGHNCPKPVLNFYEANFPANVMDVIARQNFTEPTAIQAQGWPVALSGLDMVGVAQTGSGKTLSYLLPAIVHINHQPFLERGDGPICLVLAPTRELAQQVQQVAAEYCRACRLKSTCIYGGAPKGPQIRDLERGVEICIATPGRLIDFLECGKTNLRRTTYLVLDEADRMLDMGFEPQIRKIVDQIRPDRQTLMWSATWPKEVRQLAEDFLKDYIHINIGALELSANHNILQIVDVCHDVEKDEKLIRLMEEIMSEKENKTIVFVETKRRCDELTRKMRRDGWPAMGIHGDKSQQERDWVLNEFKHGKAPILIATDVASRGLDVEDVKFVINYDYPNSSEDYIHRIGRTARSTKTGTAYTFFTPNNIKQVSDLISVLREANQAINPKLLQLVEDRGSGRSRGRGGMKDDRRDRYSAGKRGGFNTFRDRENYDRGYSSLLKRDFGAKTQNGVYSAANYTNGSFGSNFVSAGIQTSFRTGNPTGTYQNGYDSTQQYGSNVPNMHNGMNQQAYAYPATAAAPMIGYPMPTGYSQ

Tests used:
[1] = target: A-kinase-anchoring protein 8 (AKAP8), endogenous (human (endogenous in 293T)) (UniProt O43823); experiment: co-IP
GST-AKAP8 (human) = GST-AKAP8 (human) (UniProt O43823); experiment: pull-down
HA-AKAP8 (human) = HA-AKAP8 (human) (UniProt O43823); experiment: co-IP

| Substance | binding [1] | binding (GST-AKAP8 (human)) | binding (HA-AKAP8 (human)) |
| --- | --- | --- | --- |
| ATP-dependent DEAD box RNA helicase DDX5 (endogenous) (from UniProt P17844 1-614) | binds | binds | – |
| DDX5-FLAG (from UniProt P17844 1-614) | – | – | binds |
| DDX5-His (from UniProt P17844 1-614) | – | binds | – |
